{
  "source": "paper PMC9463443",
  "test_system": "CCAN6E-deltaCT (CENP-L4E/N2E) K296E,R306E,K319E,K321E,CENP-N:K270E,CENP-L:K155E (Homo sapiens)",
  "assay": "EMSA",
  "conditions": "300 mM NaCl; EMSA: 20 mM HEPES-Na pH 7.5, 300 mM NaCl, 0.5 mM TCEP, 10 min on ice, 1% agarose in 0.5x TAE; recombinant protein",
  "note": "Construct, isoform or probe ends are uncertain for at least one entry. The comparison behind a weaker result is the experiment's own reference, which may not be listed here.",
  "data": [
    {"sequence": "ATCGAGAATCCCGGTGCCGAGGCCGCTCAATTGGTCGTAGACAGCTCTAGCACCGCTTAAACGCACGTACGCGCTGTCCCCCGCGTTTTAACCGCCAAGGGGATTACTCCCTAGTCTCCAGGCACGTGTCACATATATACATCCGAT (double strand) [147 bp DNA (Widom 601)]", "values": [
      {"measurement": "binding result", "result": "binds more weakly"}
    ]}
  ]
}
